No signal at the amounts used counts as a negative. At least one verdict rests on a figure or table, not on a statement of the authors. Protein sequences can lack the tags named with them.
Target: T1, PET28-NgAP2a (Nannochloropsis gaditana) (UniProt W7TGT1)
T1 sequence (looked up, limits assumed): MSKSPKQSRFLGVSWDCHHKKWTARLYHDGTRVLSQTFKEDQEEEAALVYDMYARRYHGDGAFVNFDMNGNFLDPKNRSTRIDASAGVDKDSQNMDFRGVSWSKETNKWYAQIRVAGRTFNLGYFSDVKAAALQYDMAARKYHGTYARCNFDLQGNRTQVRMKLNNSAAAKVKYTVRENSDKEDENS
Experiment: EMSA
Details: Beyotime Chemiluminescent EMSA Kit GS009 per manual; pH and temperature not stated; recombinant protein; label: 3' biotin

“GTAGAGGAGTTCGTCAACCCTAAGTTCAAGGA (double strand) [M2 probe (EMSA2)]”: no binding.
“GTTATGCTCCAAAAACCTATGGGGATTGTATTG (double strand) [M8 probe (EMSA8)]”: no binding.
“ACGCCAGGACGGGAGACTTCAACAGGGGGT (double strand) [M6 probe (EMSA6)]”: no binding.
“AGGTTGCAACCAGCCGAAACCCTGATGCTG (double strand) [M4 probe (EMSA4)]”: no binding.

From paper PMC11477109, “NgAP2a Targets KCS Gene to Promote Lipid Accumulation in Nannochloropsis gaditana”
